# Test results: the supplement of paper PMC3334620
# Whole data set: some 33,000 sequences, median “E-score (-0.5 to 0.5)” near -0.0034, cut for the highest 2% near 0.25. The list shows a part of the results.
# Molecular target: T1, Yap3 (UniProt P38749)
# T1 sequence: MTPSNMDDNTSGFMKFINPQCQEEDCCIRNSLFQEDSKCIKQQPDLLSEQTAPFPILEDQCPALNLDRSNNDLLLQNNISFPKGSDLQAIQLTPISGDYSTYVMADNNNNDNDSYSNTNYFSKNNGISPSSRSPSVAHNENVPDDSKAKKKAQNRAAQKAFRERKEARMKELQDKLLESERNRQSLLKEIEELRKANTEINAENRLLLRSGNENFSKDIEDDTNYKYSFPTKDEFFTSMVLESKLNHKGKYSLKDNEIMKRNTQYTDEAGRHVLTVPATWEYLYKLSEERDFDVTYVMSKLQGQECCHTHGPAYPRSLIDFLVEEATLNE
# Experiment: PBM E-score (8-mer binding enrichment) (E-score (-0.5 to 0.5)); higher = stronger / more preferred TF binding
# Conditions: protein concentration: 100 nM; construct: GST-full length
# In short: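 Universal all-10-mer Agilent arrays, fresh or stripped once, were converted to double-stranded form by primer extension. GST-tagged yeast transcription factors from PURExpress in vitro transcription/translation, full-length or DNA-binding domain only, were applied at about 100-200 nM and detected with fluorescent anti-GST. After masliner normalisation, the Universal PBM Analysis Suite scored each ungapped eight-base word together with its reverse complement by E-score.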
row,Sequence,PBM E-score
1,AAGGTCGC,-0.0767
2,ACAGATCT,0.0371
3,ACCGCCTC,-0.253
4,CAGTAATG,0.0685
5,AGAACCGC,0.165
6,AGACACTC,-0.0476
7,TCACTAGA,0.0909
8,CTTAGTCC,-0.0515
9,CGTGTGGA,-0.118
10,TAGCCGAA,-0.0349
11,TACCGCTA,0.123
12,ACTTCAAC,-0.0136
13,GAGACACA,0.0836
14,AAAAACTA,0.256
15,ATACTCTA,0.0927
16,AACCCGTC,-0.241
17,GCAGTAAC,-0.126
18,GTCGCCGA,-0.084
19,TAAGGGAA,0.0811
20,CATCCGGC,-0.0421
21,TTAAAGAA,0.19
22,ATTAGATG,0.261

row,Sequence,PBM E-score
1,CATTCAAC,-0.065
2,CAAATAAG,-0.0581
3,AGTAACTA,0.115
4,CGTTATAC,-0.0926
5,CCTCGGCC,-0.107
6,ACACCCAC,-0.069
7,AGTCAACA,0.124
8,CAGGGCAA,-0.0365
9,ATATATCG,0.203
10,AAGTCGTA,-0.04
11,CAGACCTC,-0.181
12,ACTCCCTG,0.0264
13,GGGGGCAA,-0.0733
14,CCGAGTAC,-0.0586
15,CCTATAAC,-0.0793
16,GTACAATA,0.104
17,TACGGCGA,0.0467
18,AGAGCATC,-0.0212
19,GGCGGCGA,-0.173
20,CAAAATAG,0.017
21,AGCGACAG,0.0519
22,AGCATGGA,-0.168

row,Sequence,PBM E-score
1,TGAATACA,0.15
2,CATCAAGA,0.0103
3,AACGTAAC,0.201
4,AAAAGTCT,0.0573
5,AGGGCACC,-0.274
6,CCCAAGAG,-0.206
7,AGAAGCCG,-0.114
8,AGCTCCTG,-0.232
9,AATAAAGG,-0.0245
10,TGAGTTAA,0.0865
11,CGCAGAGA,-0.0352
12,GGTGAAAA,0.175
13,AATAAATA,0.315
14,AGCGACTC,-0.0834
15,GTGGTGTA,-0.0507
16,GCTAGTCA,-0.237
17,CTAACAGA,0.174
18,GGCGCTCA,-0.079
19,CACCCGAG,-0.0559
20,ACTTGGCT,-0.116
21,AGCTATTC,-0.135
22,ACAACAAT,0.183

row,Sequence,PBM E-score
1,ATGCAGTC,-0.172
2,GATCTCCC,-0.194
3,GAATATGA,0.168
4,AGGGTCTA,-0.135
5,GCAGGCCA,-0.251
6,ATGCACGG,-0.0661
7,CCCACGGC,-0.277
8,GAAAGAGC,-0.0302
9,CCCAAACG,-0.154
10,CGAAAGAC,-0.0176
11,GGTGTAAC,0.0027
12,ACGGCGCA,0.0681
13,ATCCCACA,-0.00065
14,ATTCAGCC,-0.0639
15,ACGGGGTC,-0.272
16,CTTTTACA,0.247
17,ACCGTTGG,-0.161
18,CATTAGTC,0.0988
19,ACATGAGG,-0.109
20,AAGGGAGG,-0.283

# Some of the entries so far, tab-delimited.
row	Sequence	PBM E-score
14	AAAAACTA	0.256
15	ATACTCTA	0.0927
16	AACCCGTC	-0.241
17	GCAGTAAC	-0.126
18	GTCGCCGA	-0.084
19	TAAGGGAA	0.0811
20	CATCCGGC	-0.0421
21	TTAAAGAA	0.19
22	ATTAGATG	0.261
1	CATTCAAC	-0.065
2	CAAATAAG	-0.0581
3	AGTAACTA	0.115
4	CGTTATAC	-0.0926
5	CCTCGGCC	-0.107
6	ACACCCAC	-0.069
7	AGTCAACA	0.124
8	CAGGGCAA	-0.0365
9	ATATATCG	0.203
10	AAGTCGTA	-0.04
11	CAGACCTC	-0.181
12	ACTCCCTG	0.0264
13	GGGGGCAA	-0.0733
14	CCGAGTAC	-0.0586
